In assay [1] the target is Human nerve growth factor receptor (Homo sapiens, UniProt P04629). Kind of assay: Receptor inhibitory activity using cells expressing a nerve growth factor receptor (NGF-dependent intracellular Ca increase, FLIPR). The following applies: HEK293 cells stably expressing Human nerve growth factor receptor; NGF about 100 to 150 ng/ml; Ca concentration change. The protocol: 1. Experiment to Measure a Receptor Inhibitory Activity Using Cells Expressing a Nerve Growth Factor Receptor
The nerve growth factor receptor inhibitory activity was measured by using the increase in a ligand-dependent calcium concentration in cells as an index. HEK293 cells (American Type Culture Collection) that stably expressed Human nerve growth factor receptor were dispensed onto a 96-well poly-D-lysine-coated plate (Product Name: Biocoat, PDL96W black/clear, by Nippon Becton Dickinson) to a 2×10^4 cells/well at the day before the experiment, and incubated overnight at 37° C. under 5% carbon dioxide (CO2) in a culture medium containing 10% fetal bovine serum (FBS) (Product Name: DMEM, Invitrogen Corporation). The culture medium was replaced by a washing solution: a Hank's balanced salt solution)(HBSS), containing a 1.5 μM loading buffer (fluorescent indicator (Product Name: Fluo-4-AM, […].)), 20 mM 2-[4-(2-hydroxyethyl)-1-piperazinyl]ethanesulfonic acid (HEPES)-sodium hydroxide (NaOH), 2.5 mM Probenecid, 0.1% bovine serum albumin (BSA), and left to stand at room temperature for 3 hours, and the cells were washed using a plate washer (Product Name: ELx405, BIO-TEK instrument Corporation) in which a washing solution had been set up. The compound that had been preliminarily dissolved and diluted in a washing solution was added thereto, and set up in a system for measuring a calcium (Ca) concentration in a cell (Product Name: FLIPR, Molecular Devices Corporation). After 5 minutes, a nerve growth factor (NGF, mouse derived 2.5S, Alomone) corresponding on 80% stimulation of a maximum response was added (to a final concentration of about 100 to 150 ng/ml) to measure the change in Ca concentrations in cells. A difference between a maximum value and a minimum value in Ca concentrations in cells was determined, and kept as measurement data. With a response upon addition of NGF being set at 0%, and a response upon addition of a buffer being set at 100%, the concentration causing 50% inhibition was determined as an IC50 value. In the table, Ex represents Compound No. of Examples as described later. From the results of this test, it was confirmed that the compound of the present invention has a nerve growth factor receptor inhibitory activity.

Protein sequences, listed by entry. Tags and fused reporters are not part of them. Residues count along the entry.
UniProt P04629, 33-796 limits assumed: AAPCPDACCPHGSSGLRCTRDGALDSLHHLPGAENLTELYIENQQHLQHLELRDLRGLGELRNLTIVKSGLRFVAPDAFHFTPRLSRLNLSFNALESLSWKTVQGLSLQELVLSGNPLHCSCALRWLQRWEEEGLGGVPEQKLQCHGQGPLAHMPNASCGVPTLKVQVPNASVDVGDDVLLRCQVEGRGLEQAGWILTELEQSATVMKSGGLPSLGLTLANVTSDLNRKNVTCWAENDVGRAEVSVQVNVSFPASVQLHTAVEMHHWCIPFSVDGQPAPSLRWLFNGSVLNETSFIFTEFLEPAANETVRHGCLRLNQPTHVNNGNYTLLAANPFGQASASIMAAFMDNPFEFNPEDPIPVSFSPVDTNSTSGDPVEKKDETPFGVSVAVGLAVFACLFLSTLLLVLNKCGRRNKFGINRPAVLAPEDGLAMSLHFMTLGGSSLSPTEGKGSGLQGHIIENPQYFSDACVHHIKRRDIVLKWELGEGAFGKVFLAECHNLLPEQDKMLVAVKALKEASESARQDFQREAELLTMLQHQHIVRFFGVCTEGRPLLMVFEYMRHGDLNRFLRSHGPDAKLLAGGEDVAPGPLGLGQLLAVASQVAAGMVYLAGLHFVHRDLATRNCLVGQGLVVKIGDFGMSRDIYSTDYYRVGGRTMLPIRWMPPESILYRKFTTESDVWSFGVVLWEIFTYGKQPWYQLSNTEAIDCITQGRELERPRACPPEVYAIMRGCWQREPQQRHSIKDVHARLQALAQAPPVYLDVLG
UniProt P35739, 33-799 limits assumed: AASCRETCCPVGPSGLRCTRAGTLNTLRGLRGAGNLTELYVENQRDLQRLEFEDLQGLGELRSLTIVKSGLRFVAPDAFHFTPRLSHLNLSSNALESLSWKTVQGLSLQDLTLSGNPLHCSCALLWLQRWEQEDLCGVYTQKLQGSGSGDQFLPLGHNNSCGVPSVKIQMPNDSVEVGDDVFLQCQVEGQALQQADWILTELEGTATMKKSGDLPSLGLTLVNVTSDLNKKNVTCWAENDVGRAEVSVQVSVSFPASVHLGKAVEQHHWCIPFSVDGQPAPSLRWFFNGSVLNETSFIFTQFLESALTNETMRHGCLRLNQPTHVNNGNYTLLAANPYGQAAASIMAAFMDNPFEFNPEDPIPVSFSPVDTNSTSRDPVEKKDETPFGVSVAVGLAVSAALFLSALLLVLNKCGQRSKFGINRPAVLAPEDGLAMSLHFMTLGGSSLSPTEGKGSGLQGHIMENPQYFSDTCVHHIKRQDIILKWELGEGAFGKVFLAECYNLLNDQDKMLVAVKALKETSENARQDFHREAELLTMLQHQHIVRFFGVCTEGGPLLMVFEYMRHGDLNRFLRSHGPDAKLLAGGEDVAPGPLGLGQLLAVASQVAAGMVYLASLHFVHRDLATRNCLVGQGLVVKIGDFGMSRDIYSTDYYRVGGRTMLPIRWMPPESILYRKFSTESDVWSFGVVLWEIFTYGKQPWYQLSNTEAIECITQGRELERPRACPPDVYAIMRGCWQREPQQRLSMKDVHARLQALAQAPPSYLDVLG

The target of another assay is trkA receptor (Rattus norvegicus, UniProt P35739). Nature of the assay: Inhibitory activity on enhanced vascular permeability caused by NGF in rat (Evans blue). The following applies: Wistar female rat, 10 mg/kg oral, NGF intracutaneous 60 min after administration, vehicle group set at 100%. The protocol: 2. Evaluation of the Inhibitory Activity of the Compound on Enhanced Vascular Permeability Caused by NGF in Rat
The in vivo trkA receptor inhibitory activity of the compound was examined. A Wistar female rat (SLC) were forced to be orally administered with the compound (0.5% methylcellulose solution) 10 mg/3 ml/kg or a vehicle (0.5% methylcellulose solution) 3 ml/kg. Under ether anesthesia performed at 60 min after administration, physiological saline or 1 ug/ml NGF (NGF, mouse derived 2.5S, Alomone) was intracutaneously administered to the back at 50 ul/site, and then immediately a 1% Evans blue solution (dissolved in physiological saline) was administered through caudal vein at 3 ml/kg. At a time point of 10 min after the administration, the skin on the back was taken, and shaken in formamide for 16 hours. After shaking, an absorption of Evans blue extracted with formamide was measured by an absorption meter (wavelength: 620 nm), and the concentration was determined by a calibration curve method. A value obtained by subtracting the concentration of Evans blue at a site administered with physiological saline from the concentration of Evans blue at a site administered with NGF has a function dependent on NGF, and an inhibitory rate of the compound group was determined with a group administered with vehicle being set at 100%. […]

Assay [2] relates to CPA-induced urinary frequency in rat. Kind of assay: Effects on cyclophosphamide (CPA)-induced urinary frequency in rat. As to conditions: Wistar female rat, 2 days after CPA; dose 10 mg/kg oral; evaluation 30-90 min after administration; value before administration = 100%. The protocol:
3. Effects of the Compound on the Cyclophosphamide (CPA)-Induced Urinary Frequency in Rat
CPA (150 mg/5 ml/kg) was intraperitoneally administered to a Wistar female rat (Charles river laboratories), and after two days, the experiment was carried out. It was forced to be orally administered with distilled water (30 ml/kg), and then placed in a metabolic cage, and the voided urine weight and the urination frequency were continuously measured for 1 hour. The compound (0.5% methylcellulose solution) 3 or 10 mg/5 ml/kg, or a vehicle (0.5% methylcellulose solution) 5 ml/kg was orally administered, and after 5 to 30 min, the urinary functions were measured after loading water in the same manner as described above. A total voided urine weight was divided by the total urination frequency to determine an effective bladder capacity. With the value before administration of the compound being set at 100%, a rate of change in the effective bladder capacity caused by administration of the compound was determined.
In this test, at 2 days after CPA treatment, the effective bladder capacity was decreased (about 0.5 ml), indicating urinary frequency condition.

As a reminder, the IC50 is the concentration at which inhibition is half-maximal. A low value points to greater potency.

Each structure is given as a SMILES string. Structures were worked out from names or drawings and are uncertain.

The molecule `O=C(Nc1ccccc1N1CCC(O)CC1)c1coc(-c2ccccc2)n1` yielded an IC50 in assay [1] of 2.4 nM. Take `NC(=O)C1CCN(c2ccccc2NC(=O)c2coc(N3CCOCC3)n2)CC1`: at trkA receptor, the Inhibition rate is 91%. This molecule came in with an IC50 in assay [1] of 2.3 nM. The “Change rate of effective bladder capacity” value in assay [2] worked out at 177%. Regarding `COC(=O)Cc1ccc(NC(=O)c2csc(-c3ccccc3)n2)c(N2CCN(CC(N)=O)CC2)c1`, in assay [1], the IC50 came to 4.3 nM. With `NC(=O)C1CCN(c2ccccc2NC(=O)c2csc(-c3ccccc3)n2)C1` (stereo not drawn), in assay [1], the IC50 was determined as 4.7 nM.
